These results are taken from article PMC10235469.

Results are given in words; binding and its absence hold for the method and conditions named. Binding seen in cells or lysates may run through a third protein. Binding calls can cover weak binding; strength is not graded here.

In this assay the target is Flag-SIRT3 (Sirtuin 3). Nature of the assay: co-IP; HEK293T cells co-expressing Flag-SIRT3 with or without XBP1s; antibody or normal IgG added to 1 mg precleared cell lysate overnight at 4°C, Protein A/G-Plus Beads 3 hours at 4°C; blots probed for SIRT3 or XBP1s.

B1: spliced form of X-box binding protein 1 (XBP1s) (protein, UniProt P17861-2 1-376)
chain: MVVVAAAPNPADGTPKVLLLSGQPASAAGAPAGQALPLMVPAQRGASPEAASGGLPQARKRQRLTHLSPEEKALRRKLKNRVAAQTARDRKKARMSELEQQVVDLEEENQKLLLENQLLREKTHGLVVENQELRQRLGMDALVAEEEAEAKGNEVRPVAGSAESAAGAGPVVTPPEHLPMDSGGIDSSDSESDILLGILDNLDPVMFFKCPSPEPASLEELPEVYPEGPSSLPASLSLSVGTSSAKLEAINELIRFDHIYTKPLVLEIPSETESQANVVVKIEEAPLSPSENDHPEFIVSVKEEPVEDDLVPELGISNLLSSSHCPKPSSCLLDAYSDCGYGGSLSPFSDMSSLLGVNHSWEDTFANELFPQLISV
On to B1, for which the binding result is recorded as “binds”.
